A short description of this assay: qHTS Assay for Modulators of Lamin A Splicing. The following applies: HeLa LMNA splicing GFP/RFP minigene ratio, 48 h. The gist of the method:
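S3 HeLa cells stably expressing lamin A-EGFP splicing minigene plus DsRed2, 600 cells/well, 48 h compound exposure at 37C. Laser-scanning cytometry; analysed as GFP (500-530 nm)/RFP (575-640 nm) total intensity ratio; 0.5% DMSO vehicle.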

[1] abbreviates: measured here: GFP splicing reporter channel.
Setting [2] is: measured here: RFP viability control channel.

The term AC50 denotes the concentration at which the activity in the assay is half-maximal.

Molecules are shown by their SMILES. Some of the results follow. Shown are side measurements of this screen, not its main read-out; they come without a call. The list favours compounds with an active or inconclusive main result. Words in brackets tell the shape of the fitted curve; partial curves, single points and poor fits give uncertain potencies.

For the compound `CN1CCN(c2ncc3nc(-c4cn(C)c5ccccc45)c(=O)n(C)c3n2)CC1`, the AC50 under setting [1] was 25.1 µM [falling, partial curve, poor fit].

Turning to `Cc1sc(NC(=O)c2ccco2)c(C(c2cccnc2)N2CCN(c3ccc(F)cc3)CC2)c1C` (stereo not drawn), the AC50 is 2 µM [rising, partial curve, poor fit] under setting [1] and 0.447 µM [rising, full curve, poor fit] under setting [2].

On to `COC(=O)c1ccccc1NC(=S)N(Cc1ccc2c(c1)OCO2)Cc1cc2cc(OC)ccc2[nH]c1=O`, for which the AC50 under setting [2] was 12.6 µM [rising, single point].

On to `Cc1cc(=O)[nH]c(SCC(=O)Nc2cccc(C(F)(F)F)c2)n1`, for which, under setting [2], the AC50 is 35.5 µM [rising, single point].

Consider `Cc1c(C(=O)OCC(=O)Nc2cccc(S(N)(=O)=O)c2)oc2c1ccc1ccccc12`, for which, under setting [1], the AC50 is 8.91 µM [rising, partial curve, poor fit].

Turning to `COc1cc(C(=O)Nc2nnc(C3CC3)s2)ccc1OCc1c(C)noc1C`, the AC50 under setting [1] was 0.00355 µM [rising, full curve, poor fit].

In the case of `NNC(=S)NC1CCCCC1`, the AC50 under setting [1] is 20 µM [rising, single point] and the AC50 under setting [2] was 12.6 µM [rising, single point].

For the compound `Cn1c(-n2cccc2)c(-c2c(-c3ccc(F)cc3)[nH]c3c2c(=O)n(C)c(=O)n3C)c(=O)n(C)c1=O`, the AC50 under setting [2] is 0.0316 µM [falling, full curve, poor fit].

For the compound `Cc1noc(C)c1COC(=O)c1cccc(N(C)C)c1`, the AC50 was 10 µM [falling, partial curve, poor fit] under setting [1] and 0.0316 µM [falling, full curve, poor fit] under setting [2].

For `CN(C)CC/C=C1\c2ccccc2COc2ccccc21`, the AC50 is, setting by setting: under setting [1], 0.0224 µM [falling, full curve, poor fit]; under setting [2], 0.398 µM [falling, single point].

In the case of `CC1CC(C)CN(S(=O)(=O)c2ccc(NC(=O)C3COc4ccccc4O3)cc2)C1` (stereo not drawn), under setting [2], the AC50 is 25.1 µM [rising, single point].

As for `CC1=C(c2ccc(C(C)C)cc2)S(=O)(=O)N=C1N1CCC(C(=O)NCc2ccccc2)CC1`, the AC50 runs as follows: under setting [1], 22.4 µM [falling, partial curve, poor fit]; under setting [2], 22.4 µM [falling, partial curve, poor fit].

`COC(=O)c1cc(-c2ccc(C)o2)nc2ccccc12`: the AC50 under setting [1] was 11.2 µM [falling, single point] and the AC50 under setting [2] is 11.2 µM [falling, partial curve].

Turning to `CN1[C@@H]2CC[C@H]1CC(OC(=O)[C@@H](CO)c1ccccc1)C2` (stereo partly drawn), under setting [1], the AC50 is 0.355 µM [falling, full curve, poor fit].

On to `COc1ccc(S(=O)(=O)N2CCc3ccccc32)cc1C(=O)OCc1c(C)noc1C`, for which the AC50 runs as follows: under setting [1], 14.1 µM [rising, single point]; under setting [2], 15.8 µM [rising, single point].

Take `Cn1c(=O)oc2cc(S(=O)(=O)Nc3cccc4c3CCCC4)ccc21`: under setting [2], the AC50 is 11.2 µM [rising, partial curve].

For `COc1cc(C2C3=C(CCCC3=O)Nc3ccc4ncccc4c32)ccc1O` (stereo not drawn), the AC50 under setting [2] was 4.47 µM [rising, partial curve, poor fit].

For the compound `O=C(NC(=S)Nc1ccc(-c2nc3ncccc3o2)cc1)c1ccccc1F`, the AC50 under setting [2] was 0.355 µM [rising, partial curve, poor fit].

Consider `COc1ccc(OC)c(S(=O)(=O)N(C)CC(=O)Nc2cc(Cl)ccc2OC)c1`, for which the AC50 under setting [2] was 35.5 µM [rising, single point].

In the case of `CC(=O)c1cnc(Nc2ccccc2)s1`, the AC50 under setting [1] was 11.2 µM [rising, single point].

In the case of `O=C(COc1cccc(NC(=O)c2ccccc2)c1)c1ccc(F)cc1`, the AC50 is, setting by setting: under setting [1], 17.8 µM [rising, single point]; under setting [2], 35.5 µM [rising, single point].

`Cc1ccccc1Cn1cnc2c(NS(C)(=O)=O)c(C)c(C)cc21`: under setting [2], the AC50 is 22.4 µM [rising, single point].

As for `N/C(=N\OC(=O)c1ccco1)c1ccc(Br)cc1`, the AC50 is, setting by setting: under setting [1], 2.51 µM [rising, partial curve]; under setting [2], 3.16 µM [rising, single point].

In the case of `Cc1ccc(NC(=O)CCc2c(C)nn(-c3ccc(N4CCOCC4)nn3)c2C)c(C)c1`, the concentration at half-maximal activity (AC50) under setting [2] is 4.47 µM [rising, partial curve, poor fit].

On to `O=C(CSc1cccc(C(F)(F)F)c1)Nc1cc(S(=O)(=O)N2CCCC2)ccc1Cl`, for which the AC50 is, setting by setting: under setting [1], 35.5 µM [rising, single point]; under setting [2], 35.5 µM [rising, single point].

Regarding `CCCCN(CC)C(=O)CSc1nc2n[nH]c(C)c2c(=N)n1-c1cccc(C)c1`, the AC50 under setting [2] is 0.00501 µM [falling, partial curve, poor fit].

In the case of `CCc1c(C)sc(NC(=O)c2cccs2)c1C(=O)OC(C)C`, the AC50 under setting [1] was 12.6 µM [rising, single point].

On to `CCCCN(C)Cc1c(C(=O)N2CCc3ccccc3C2)nc2ccc(Cl)cn12`, for which the AC50 under setting [2] was 39.8 µM [falling, partial curve, poor fit].

For the compound `CC[C@H](C(=O)[C@H](C)[C@H](O)[C@H](C)CCc1ccc(C)c(O)c1C(=O)O)[C@H]1O[C@](CC)([C@@H]2CC[C@@](O)(CC)[C@H](C)O2)C[C@H]1C`, the AC50 runs as follows: under setting [1], 10 µM [falling, single point]; under setting [2], 10 µM [falling, single point].

As to `Cc1ccc(S(=O)(=O)N2CCC(C(=O)Nc3ccccc3N3CCCCC3)CC2)cc1`, the AC50 is 1 µM [rising, full curve, poor fit] under setting [1] and 20 µM [rising, partial curve, poor fit] under setting [2].

On to `COC(=O)c1cccnc1-n1c(=O)c2cccnc2n(Cc2cccc(C(F)(F)F)c2)c1=O`, for which, under setting [1], the AC50 is 8.91 µM [falling, single point].

Turning to `COc1ccc(Cn2c(CO)cnc2SCC(=O)Nc2ccc3c(c2)OCCO3)cc1`, under setting [1], the AC50 is 0.891 µM [rising, full curve, poor fit].

With `O=C(Nc1nccs1)c1ccc(S(=O)(=O)NCc2cccs2)cc1`, the concentration at half-maximal activity (AC50) is 7.94 µM [rising, single point] under setting [1] and 15.8 µM [rising, single point] under setting [2].

Regarding `Cc1ccc(Cl)cc1N1CCN(C(=O)Cc2cn(C)c3ccccc23)CC1`, the AC50 under setting [2] was 35.5 µM [falling, single point].

Turning to `O=C(CCCCn1c(=O)[nH]c2ccccc2c1=O)N1CCN(c2cccc(C(F)(F)F)c2)CC1`, the AC50 is, setting by setting: under setting [1], 7.08 µM [rising, partial curve]; under setting [2], 15.8 µM [rising, partial curve].

Take `COc1ccc2c(c1)C(C)=CC(C)(C)N2C(=O)CSc1nnc(-c2ccc(C)cc2)o1`: the AC50 under setting [2] was 35.5 µM [rising, single point].

As to `CN(C)CCOc1nc(-c2ccccc2)nc2c1oc1ccccc12`, under setting [2], the AC50 was 14.1 µM [rising, partial curve].

As to `CCOC(=O)N1CCN(C(=O)CSc2nc(-c3cccc(C)c3)ns2)CC1`, the AC50 runs as follows: under setting [1], 15.8 µM [rising, single point]; under setting [2], 15.8 µM [rising, single point].

With `Cc1cccc(-n2c(CCc3ccccc3)nnc2SCC(=O)c2ccccc2)c1`, the AC50 under setting [2] is 35.5 µM [rising, single point].

Take `O=C(Nc1ccc2nn(-c3ccc(F)cc3)nc2c1)c1cccnc1`: the AC50 was 4.47 µM [falling, full curve, poor fit] under setting [1] and 6.31 µM [falling, full curve, poor fit] under setting [2].

`COc1cc2c(cc1NC(=O)COC(=O)Cn1cnc3ccccc31)oc1ccccc12`: under setting [2], the AC50 was 5.62 µM [rising, single point].

As for `N#CC1=C(N)Oc2cc(O)c(C=Nc3ccccc3)cc2C1c1ccccc1` (stereo not drawn), the AC50 is, setting by setting: under setting [1], 35.5 µM [falling, single point]; under setting [2], 2 µM [rising, partial curve].

In the case of `Cc1ccc(NC(=O)c2cccc(S(=O)(=O)N(C)c3ccccc3)c2)cc1S(=O)(=O)N1CCOCC1`, the AC50 is, setting by setting: under setting [1], 11.2 µM [rising, partial curve, poor fit]; under setting [2], 20 µM [rising, partial curve].

`CC(Oc1ccc(Cl)cc1Cl)C(=O)Nc1cccnc1` (stereo not drawn): the half-maximal activity concentration (AC50) under setting [2] is 8.91 µM [rising, partial curve].

Regarding `C=CCN1C=CC(=C/C=C(/C#N)C(=O)OCC)C=C1`, the AC50 under setting [1] was 25.1 µM [falling, single point] and the AC50 under setting [2] is 14.1 µM [falling, single point].

On to `O=C(NCCCn1ccnc1)c1cc(-c2ccc(Br)cc2)on1`, for which, under setting [2], the AC50 was 0.398 µM [rising, full curve, poor fit].

Regarding `NS(=O)(=O)c1cccc(NC(=S)NC(=O)C23CC4CC(CC(C4)C2)C3)c1`, under setting [2], the AC50 was 14.1 µM [rising, partial curve].

For the compound `COc1ccc([N+](=O)[O-])cc1NC(=O)CS(=O)(=O)c1ccc(C)cc1`, the AC50 under setting [1] is 6.31 µM [rising, partial curve, poor fit].

Take `Cc1ccc(/C=C2/NC(=O)N(Cc3ccccc3)C2=O)s1`: the AC50 under setting [1] is 6.31 µM [rising, partial curve, poor fit].

As to `Clc1cccc(N2CCN(c3nnnn3-c3ccccc3)CC2)c1`, the AC50 under setting [1] is 0.501 µM [falling, full curve, poor fit].

As to `CCn1c(=O)cc(SCC(=O)N2CCN(Cc3ccc4c(c3)OCO4)CC2)c2ccccc21`, the AC50 runs as follows: under setting [1], 11.2 µM [rising, single point]; under setting [2], 25.1 µM [rising, single point].

Consider `O=C(Cc1ccc(-c2ccccc2)cc1)NCc1ccccc1`, for which the AC50 under setting [2] was 0.1 µM [rising, full curve].

In the case of `c1ccc(-c2ncnc3cc4n(c23)CCC4)cc1`, the AC50 under setting [2] was 14.1 µM [rising, single point].

For the origin of these results see PubChem BioAssay AID1487 (National Center for Advancing Translational Sciences (NCATS), 2009).
